Test results taken from patent publication US7862798B2, “Vitamin-targeted imaging agents” (Endocyte, Inc., priority 2002, dated 2011).
Some entries share one result that the patent states for a list of compounds. At least one structure is not confirmed: it was looked up by name or label, or the drawing left a doubt.

Tested on: FR-positive M109 tumors
Test: Tissue distribution, subcutaneous M109 tumors (Example 11)
Conditions: co-administered with a 100-fold excess of folic acid
Description: The ability of ^99mTc-EC20 to target tumors in vivo was assessed using a FR-positive M109 model.
Four to five week-old mice (Balb/c strain) were purchased from Harlan Sprague Dawley, Inc. (Indianapolis, Ind.) and were maintained on a folate-free diet for a total of three weeks prior to the experiment. Syngeneic, FR-positive M109 tumor cells (1×10^6 per animal) were inoculated in the subcutis of the right axilla two weeks prior to the experiment.
Animals received an approximate 40 μmol/kg i.v. dose of test article in 100 μL volume via a lateral tail vein during brief diethyl ether anesthesia. Four hours post-injection, animals were sacrificed by CO2 asphyxiation, and dissected. Selected tissues were removed, weighed, and counted to determine ^99mTc distribution. CPM values were decay-corrected, and results were tabulated as % injected dose per gram of wet weight tissue.

[NH-][C@@H](CNC(=O)CC[C@@H](NC(=O)c1ccc(NCc2cnc3nc(N)[nH]c(=O)c3n2)cc1)C(=O)O)C(=O)[N-][C@@H](CC(=O)O)C(=O)[N-][C@@H](C[S-])C(=O)O.[O]=[Tc+4] [^99mTc-EC20]
blocking of accumulation in the FR-positive tumor and kidneys: > 94%
